Measured values from the supplement of paper PMC10849652.
This is one part of the list.

Sequences of proteins named here, by UniProt entry; tags and fusion partners are left off. A change or cut given only in a name is not applied to a line headed by its entry.
UniProt O60331: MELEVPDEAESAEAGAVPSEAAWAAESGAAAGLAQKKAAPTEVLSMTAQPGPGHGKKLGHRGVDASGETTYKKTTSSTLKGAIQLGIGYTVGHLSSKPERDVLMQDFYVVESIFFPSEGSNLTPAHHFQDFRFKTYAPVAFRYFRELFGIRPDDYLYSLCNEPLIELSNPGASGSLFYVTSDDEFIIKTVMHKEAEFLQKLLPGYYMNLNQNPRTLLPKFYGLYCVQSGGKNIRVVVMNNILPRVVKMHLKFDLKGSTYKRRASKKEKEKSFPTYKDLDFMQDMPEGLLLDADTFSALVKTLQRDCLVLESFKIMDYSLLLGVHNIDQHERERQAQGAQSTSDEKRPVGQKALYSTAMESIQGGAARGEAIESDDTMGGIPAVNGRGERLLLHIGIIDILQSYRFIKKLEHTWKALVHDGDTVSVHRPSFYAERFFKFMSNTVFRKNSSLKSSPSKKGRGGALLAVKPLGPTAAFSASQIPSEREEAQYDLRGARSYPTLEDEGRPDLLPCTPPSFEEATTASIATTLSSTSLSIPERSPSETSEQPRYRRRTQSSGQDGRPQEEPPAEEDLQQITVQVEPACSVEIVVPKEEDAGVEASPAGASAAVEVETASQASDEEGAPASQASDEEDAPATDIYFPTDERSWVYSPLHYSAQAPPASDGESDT
UniProt O75167: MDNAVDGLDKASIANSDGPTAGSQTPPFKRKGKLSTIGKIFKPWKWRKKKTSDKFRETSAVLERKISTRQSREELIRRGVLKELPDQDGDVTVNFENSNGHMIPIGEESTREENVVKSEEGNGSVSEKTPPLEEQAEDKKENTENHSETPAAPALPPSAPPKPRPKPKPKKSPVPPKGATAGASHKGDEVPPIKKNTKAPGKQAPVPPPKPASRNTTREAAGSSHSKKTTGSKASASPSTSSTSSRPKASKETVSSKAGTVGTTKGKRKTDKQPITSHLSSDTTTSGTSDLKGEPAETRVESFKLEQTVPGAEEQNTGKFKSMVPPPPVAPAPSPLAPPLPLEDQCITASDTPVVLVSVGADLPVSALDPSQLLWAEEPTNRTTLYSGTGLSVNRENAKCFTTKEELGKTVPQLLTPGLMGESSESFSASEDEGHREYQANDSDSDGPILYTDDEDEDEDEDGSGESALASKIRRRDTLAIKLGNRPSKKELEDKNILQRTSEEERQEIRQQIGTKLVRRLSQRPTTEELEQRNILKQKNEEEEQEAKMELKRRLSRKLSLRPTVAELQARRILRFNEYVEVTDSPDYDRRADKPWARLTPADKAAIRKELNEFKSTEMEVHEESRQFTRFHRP
PIGBOS1, A0A0B4J2F0, UniProt A0A0B4J2F0, whole entry, looked up: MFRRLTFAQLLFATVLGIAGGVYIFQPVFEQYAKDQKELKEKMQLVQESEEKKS
UniProt Q9P1W9: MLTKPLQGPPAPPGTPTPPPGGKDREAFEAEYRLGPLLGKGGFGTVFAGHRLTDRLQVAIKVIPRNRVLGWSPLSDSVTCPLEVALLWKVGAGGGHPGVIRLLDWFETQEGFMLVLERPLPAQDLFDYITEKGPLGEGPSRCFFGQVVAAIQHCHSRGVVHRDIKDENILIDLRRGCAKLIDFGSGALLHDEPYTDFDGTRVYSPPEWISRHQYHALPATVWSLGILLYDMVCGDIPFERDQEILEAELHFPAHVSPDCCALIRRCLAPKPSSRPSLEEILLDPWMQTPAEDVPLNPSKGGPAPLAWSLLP
UniProt Q15149: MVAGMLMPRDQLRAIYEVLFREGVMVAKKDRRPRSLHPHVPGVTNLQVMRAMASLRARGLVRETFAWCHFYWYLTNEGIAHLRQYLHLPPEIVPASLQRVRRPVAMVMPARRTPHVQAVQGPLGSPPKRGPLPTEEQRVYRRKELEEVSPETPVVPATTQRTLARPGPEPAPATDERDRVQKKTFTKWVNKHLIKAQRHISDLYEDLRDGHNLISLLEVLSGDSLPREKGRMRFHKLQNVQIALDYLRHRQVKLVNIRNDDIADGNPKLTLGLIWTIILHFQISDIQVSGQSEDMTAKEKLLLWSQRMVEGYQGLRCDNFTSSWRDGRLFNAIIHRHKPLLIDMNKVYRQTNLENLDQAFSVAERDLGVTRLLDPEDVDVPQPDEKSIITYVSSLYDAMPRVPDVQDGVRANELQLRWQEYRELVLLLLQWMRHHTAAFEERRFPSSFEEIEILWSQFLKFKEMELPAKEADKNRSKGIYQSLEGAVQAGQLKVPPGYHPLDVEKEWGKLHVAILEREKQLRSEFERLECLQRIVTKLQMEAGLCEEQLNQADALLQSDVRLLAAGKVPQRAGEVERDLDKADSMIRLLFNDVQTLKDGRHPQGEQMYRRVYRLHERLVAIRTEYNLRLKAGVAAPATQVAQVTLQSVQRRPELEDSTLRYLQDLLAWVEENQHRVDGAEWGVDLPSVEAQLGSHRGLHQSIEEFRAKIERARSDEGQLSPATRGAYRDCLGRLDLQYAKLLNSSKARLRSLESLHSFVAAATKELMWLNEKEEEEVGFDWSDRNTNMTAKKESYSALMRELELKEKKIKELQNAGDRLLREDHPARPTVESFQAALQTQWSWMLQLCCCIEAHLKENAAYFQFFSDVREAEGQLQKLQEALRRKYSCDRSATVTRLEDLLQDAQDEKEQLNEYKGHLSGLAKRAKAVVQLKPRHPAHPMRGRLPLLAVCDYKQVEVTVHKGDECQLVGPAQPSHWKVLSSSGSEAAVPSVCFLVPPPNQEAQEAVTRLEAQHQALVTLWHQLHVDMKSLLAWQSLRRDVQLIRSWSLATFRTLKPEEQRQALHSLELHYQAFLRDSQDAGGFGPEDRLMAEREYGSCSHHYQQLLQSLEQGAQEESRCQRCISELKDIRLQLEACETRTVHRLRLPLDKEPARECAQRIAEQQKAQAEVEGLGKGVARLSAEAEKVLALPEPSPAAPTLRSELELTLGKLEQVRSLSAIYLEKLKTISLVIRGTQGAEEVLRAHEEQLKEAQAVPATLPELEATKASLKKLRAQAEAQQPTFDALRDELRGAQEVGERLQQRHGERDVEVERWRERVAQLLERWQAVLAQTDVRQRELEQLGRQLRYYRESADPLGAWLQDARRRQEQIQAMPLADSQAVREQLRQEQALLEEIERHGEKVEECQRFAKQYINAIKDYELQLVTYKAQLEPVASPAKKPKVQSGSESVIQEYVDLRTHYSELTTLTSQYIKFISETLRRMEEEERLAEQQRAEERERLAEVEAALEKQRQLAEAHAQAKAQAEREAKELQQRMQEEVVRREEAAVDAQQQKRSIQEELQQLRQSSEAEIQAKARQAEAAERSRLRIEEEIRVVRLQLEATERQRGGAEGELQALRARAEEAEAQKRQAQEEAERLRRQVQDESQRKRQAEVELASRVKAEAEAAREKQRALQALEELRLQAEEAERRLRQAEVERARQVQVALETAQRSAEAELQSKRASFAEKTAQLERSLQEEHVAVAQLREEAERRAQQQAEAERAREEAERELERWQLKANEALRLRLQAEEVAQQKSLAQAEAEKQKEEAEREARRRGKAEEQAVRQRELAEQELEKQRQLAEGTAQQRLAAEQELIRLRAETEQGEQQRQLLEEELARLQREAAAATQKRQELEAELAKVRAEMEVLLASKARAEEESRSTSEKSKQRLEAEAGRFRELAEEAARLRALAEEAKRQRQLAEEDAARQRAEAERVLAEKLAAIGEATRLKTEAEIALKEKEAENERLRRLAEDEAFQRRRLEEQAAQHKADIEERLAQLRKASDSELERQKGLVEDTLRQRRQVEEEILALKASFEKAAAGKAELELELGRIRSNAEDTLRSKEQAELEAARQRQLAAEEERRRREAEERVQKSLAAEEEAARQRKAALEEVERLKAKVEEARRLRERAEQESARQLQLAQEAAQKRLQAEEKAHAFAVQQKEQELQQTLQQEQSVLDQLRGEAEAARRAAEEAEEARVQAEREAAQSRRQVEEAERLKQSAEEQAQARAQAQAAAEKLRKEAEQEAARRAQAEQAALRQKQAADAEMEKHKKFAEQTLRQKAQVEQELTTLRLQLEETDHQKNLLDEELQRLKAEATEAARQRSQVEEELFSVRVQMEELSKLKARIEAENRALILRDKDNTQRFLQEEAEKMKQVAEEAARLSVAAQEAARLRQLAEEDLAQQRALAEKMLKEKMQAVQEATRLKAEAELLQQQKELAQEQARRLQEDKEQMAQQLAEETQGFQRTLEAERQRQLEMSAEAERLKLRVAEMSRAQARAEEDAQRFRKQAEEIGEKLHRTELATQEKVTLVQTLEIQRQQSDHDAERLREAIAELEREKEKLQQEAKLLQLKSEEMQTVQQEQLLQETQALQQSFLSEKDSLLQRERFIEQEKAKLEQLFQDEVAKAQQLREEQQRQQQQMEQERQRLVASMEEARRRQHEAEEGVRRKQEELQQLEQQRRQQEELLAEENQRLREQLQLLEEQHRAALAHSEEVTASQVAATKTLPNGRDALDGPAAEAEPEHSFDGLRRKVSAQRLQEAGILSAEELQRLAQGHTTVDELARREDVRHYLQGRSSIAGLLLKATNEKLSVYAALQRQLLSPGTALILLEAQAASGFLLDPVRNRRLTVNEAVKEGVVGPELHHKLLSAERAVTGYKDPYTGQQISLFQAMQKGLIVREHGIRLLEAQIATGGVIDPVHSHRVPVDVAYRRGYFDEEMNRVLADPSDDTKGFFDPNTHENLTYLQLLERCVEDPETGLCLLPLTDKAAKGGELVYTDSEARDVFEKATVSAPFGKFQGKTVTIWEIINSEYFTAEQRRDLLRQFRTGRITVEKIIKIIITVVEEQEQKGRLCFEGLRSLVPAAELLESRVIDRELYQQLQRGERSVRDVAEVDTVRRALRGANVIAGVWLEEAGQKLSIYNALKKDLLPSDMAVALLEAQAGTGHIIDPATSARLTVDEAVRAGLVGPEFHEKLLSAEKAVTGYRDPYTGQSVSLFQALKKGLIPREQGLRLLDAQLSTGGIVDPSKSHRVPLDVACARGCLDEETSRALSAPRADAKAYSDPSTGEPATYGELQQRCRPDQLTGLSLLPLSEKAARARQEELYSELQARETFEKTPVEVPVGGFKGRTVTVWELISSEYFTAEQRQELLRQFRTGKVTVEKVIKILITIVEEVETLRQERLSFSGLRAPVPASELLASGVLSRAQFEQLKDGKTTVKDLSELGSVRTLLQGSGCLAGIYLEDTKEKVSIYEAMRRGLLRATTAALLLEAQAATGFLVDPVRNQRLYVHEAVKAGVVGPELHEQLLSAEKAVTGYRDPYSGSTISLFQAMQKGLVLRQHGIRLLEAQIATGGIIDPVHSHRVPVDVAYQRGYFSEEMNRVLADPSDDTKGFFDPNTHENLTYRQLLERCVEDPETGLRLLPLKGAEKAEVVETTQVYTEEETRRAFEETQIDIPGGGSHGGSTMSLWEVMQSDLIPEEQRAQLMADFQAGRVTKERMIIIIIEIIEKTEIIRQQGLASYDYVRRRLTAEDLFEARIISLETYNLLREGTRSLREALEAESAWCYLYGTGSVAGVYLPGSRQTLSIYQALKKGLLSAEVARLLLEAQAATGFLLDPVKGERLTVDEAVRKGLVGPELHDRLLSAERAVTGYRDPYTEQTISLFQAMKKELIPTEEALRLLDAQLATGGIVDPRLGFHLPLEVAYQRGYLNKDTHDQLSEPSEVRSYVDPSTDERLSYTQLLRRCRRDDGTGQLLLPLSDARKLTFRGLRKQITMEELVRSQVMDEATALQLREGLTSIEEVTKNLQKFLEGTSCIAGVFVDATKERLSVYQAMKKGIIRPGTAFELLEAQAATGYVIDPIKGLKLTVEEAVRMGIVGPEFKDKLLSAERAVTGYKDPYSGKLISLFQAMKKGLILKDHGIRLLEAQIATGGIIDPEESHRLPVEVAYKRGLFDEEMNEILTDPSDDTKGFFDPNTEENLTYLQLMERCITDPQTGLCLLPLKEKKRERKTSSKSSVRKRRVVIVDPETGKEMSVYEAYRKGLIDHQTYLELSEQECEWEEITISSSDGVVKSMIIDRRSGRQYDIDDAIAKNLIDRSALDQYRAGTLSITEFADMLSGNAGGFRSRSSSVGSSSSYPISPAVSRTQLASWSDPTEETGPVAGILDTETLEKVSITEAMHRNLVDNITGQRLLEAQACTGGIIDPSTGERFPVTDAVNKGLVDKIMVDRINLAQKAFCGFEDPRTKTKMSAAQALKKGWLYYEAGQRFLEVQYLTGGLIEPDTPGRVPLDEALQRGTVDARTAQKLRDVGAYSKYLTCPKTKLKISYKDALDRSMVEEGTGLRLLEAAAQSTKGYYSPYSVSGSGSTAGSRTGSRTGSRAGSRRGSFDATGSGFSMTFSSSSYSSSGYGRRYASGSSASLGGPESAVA
UniProt Q8N4B1: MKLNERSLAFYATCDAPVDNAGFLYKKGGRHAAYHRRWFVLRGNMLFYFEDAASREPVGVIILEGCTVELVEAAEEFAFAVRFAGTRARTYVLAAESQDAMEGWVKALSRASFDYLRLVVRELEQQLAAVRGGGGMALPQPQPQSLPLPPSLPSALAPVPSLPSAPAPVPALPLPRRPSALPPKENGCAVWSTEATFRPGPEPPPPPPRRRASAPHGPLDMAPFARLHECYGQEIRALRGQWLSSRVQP

Tests used:
Experiment in all cases: log2 fold change, soluble protein after heating vs DMSO (PISA); higher = thermal stabilisation; K562 lysate, 10 uM; active = over 0.2 and 3.5 SD of the protein, either way, in both replicates (recomputed)
[1] = compound: C/C(=N\NC(=O)C1=CC(=CC=C1)S(=O)(=O)N2CCOCC2)/C3=C(C=CC(=C3)Cl)O
Outline: (§1)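 To prepare the extract, K562 pellets were dounce-homogenised in PBS pH 7.4 with 1 mM MgCl2, giving crude material at 1 mg/mL protein. This was treated with 10 μM compound for 30 min, then heated in aliquots for 3 min over 48°C-58°C before pooling and addition of NP-40 to 0.5% at 4°C. Centrifugation at 21,000xg for 90 min left soluble protein in the supernatant, which TMTpro 16plex LC-MS/MS quantified with equalised channel sums. Results are log-two fold changes in thermal stability compared with solvent controls, from duplicates.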

[2] = compound: C1=CC2=C(C=CC(=C2)/C=C\3/C(=O)NC(=NCC4=CC=CS4)S3)N=C1
Outline: as §1

[3] = compound: C1=CC2=NC=CN=C2C=C1/C=C/3\C(=O)NC(=O)S3
Outline: as §1

[4] = compound: C1=CC=C2C(=C1)C3=NNC4=CC=CC(=C43)C2=O
Outline: as §1

[5] = compound: C1CCN(C1)C(=O)NC2=CC=CC(=C2)NC3=NC=C(C(=N3)NCCC4=CN=CN4)Br
Outline: as §1

[6] = compound: C1CN(CCC1(CC2=CC=C(C=C2)Cl)N)C3=NC=NC4=C3C=CN4
Outline: as §1

ibrutinib = compound: C=CC(=O)N1CCC[C@@H](n2nc(-c3ccc(Oc4ccccc4)cc3)c3c(N)ncnc32)C1 [ibrutinib]
Outline: as §1

erlotinib = compound: C#Cc1cccc(Nc2ncnc3cc(OCCOC)c(OCCOC)cc23)c1 [erlotinib]
Outline: as §1

[7] = compound: C1=CC(=CC=C1C2=NC3=C(N2)C=C(C=C3)C(=O)N)OC4=CC=C(C=C4)Cl
Outline: as §1

[8] = compound: CC(C)C1=C2N=C(C=C(N2N=C1)NCC3=CC=CC=C3)NCCCCCCN
Outline: as §1

[9] = compound: CC1=C(C2=C(C=C1)C(=O)C3=CC=CC=C3N2CCCN)C
Outline: as §1

[10] = compound: CC(=O)c1cnc2ccc(-c3cc(Cl)c(O)c(Cl)c3)nc2c1N[C@H]1CC[C@H](CN(C)C)CC1
Outline: as §1

[11] = compound: CC1=C(C(CC(=O)N1)C2=CC=C(C=C2)C(F)(F)F)C(=O)NC3=C(C=C4C(=C3)C=NN4)F
Outline: as §1

[12] = compound: CC1=C(C=C(C=C1)NC(=O)C2=CC(=CC=C2)C(C)(C)C#N)NC3=CC4=C(C=C3)N=CN(C4=O)C
Outline: as §1

[13] = compound: CC1=CC=C(C=C1)SC2=C3C=C(SC3=CN=C2)C(=O)N
Outline: as §1

[14] = compound: C1=CC=C(C=C1)C2=NC(=C(N2)C3=CC=NC=C3)C4=CC(=C(C=C4)Cl)O
Outline: as §1

IRAK-1-4 Inhibitor I = compound: C1COCCN1CCN2C3=CC=CC=C3N=C2NC(=O)C4=CC(=CC=C4)[N+](=O)[O-] [IRAK-1-4 Inhibitor I]
Outline: as §1

ralimetinib = compound: CC(C)(C)Cn1c(N)nc2ccc(-c3[nH]c(C(C)(C)C)nc3-c3ccc(F)cc3)nc21 [ralimetinib]
Outline: as §1

[15] = compound: CC(C)(O)CC(=O)NCCn1ccc2ncnc(Nc3ccc(Oc4cccc(C(F)(F)F)c4)c(Cl)c3)c21
Outline: as §1

[16] = compound: CC1=C(C=C(C=C1)NC(=O)C2=CC(=CC=C2)N(C)C)NC(=O)C3=CC=C(C=C3)O
Outline: as §1

Measured: log2 fold change

PHF19 isoform 2 (UniProt Q5T6S3)
inactive: [1] -0.132 | [2] 0.013 | [3] -0.137 | [4] -0.025 | [5] 0.061 | [6] 0.005 | ibrutinib -0.074

PLEKHG2 (UniProt Q9H7P9)
inactive: erlotinib -0.039 | [7] 0.1 | [5] -0.011 | [6] 0.096 | [8] 0.028 | [9] -0.295

PIEZO2 isoform 4 (UniProt Q9H5I5)
inactive: erlotinib 0.013 | [7] -0.05 | [5] -0.02 | [6] -0.003 | [10] 0.086 | [8] -0.027 | [11] -0.077 | [12] 0.051 | [13] -0.058

PICALM (UniProt H0YCY1)
inactive: erlotinib -0.09 | [7] 0.108 | [8] -0.155

PIGB (UniProt Q92521)
inactive: [1] 0.142 | [2] 0.202 | [3] -0.058 | [14] 0.109 | [4] -0.033 | [5] -0.163 | [6] 0.148 | IRAK-1-4 Inhibitor I -0.031 | ibrutinib 0.049 | ralimetinib 0.108 | [15] -0.012 | [12] -0.134 | [16] 0.02

PLEKHA2 (UniProt Q9HB19)
inactive: erlotinib -0.028 | [7] 0.009 | [3] -0.105 | [14] 0.119 | IRAK-1-4 Inhibitor I -0.12 | ibrutinib -0.079 | ralimetinib 0.079 | [15] 0 | [8] 0.047 | [11] -0.087 | [9] -0.135 | [12] 0.131 | [16] -0.239

PHLDA2 (UniProt Q53GA4)
inactive: erlotinib 0.019 | [1] -0.697 | [7] -0.123 | [2] 0.04 | [14] -0.073 | [4] -0.239 | IRAK-1-4 Inhibitor I 0.041 | ralimetinib 0.03 | [15] -0.133 | [8] -0.06 | [9] -0.042 | [12] -0.054 | [16] 0.104

PHLDB3 (UniProt Q6NSJ2)
inactive: erlotinib 0.126 | [7] 0.013 | [8] 0.034 | [12] 0.215

PIP5K1C isoform 3 (UniProt O60331)
inactive: erlotinib -0.096 | [7] 0.003 | [3] -0.135 | [14] 0.005 | [5] -0.008 | [6] -0.034 | IRAK-1-4 Inhibitor I -0.056 | ibrutinib -0.165 | [10] 0.211 | ralimetinib 0.011 | [15] -0.019 | [8] 0.049 | [11] 0.097 | [9] 0.129 | [12] -0.036 | [16] 0.006 | [13] -0.06

PGM1 isoform 2 (UniProt P36871)
inactive: erlotinib 0.202 | [7] -0.277 | [5] 0.124 | [6] 0.113 | [8] 0.243 | [9] -0.073

PLAU (UniProt P00749)
inactive: erlotinib -0.085 | [7] -0.101 | [14] -0.02 | [5] 0.01 | [6] -0.039 | IRAK-1-4 Inhibitor I 0.076 | [10] -0.327 | ralimetinib -0.037 | [15] -0.115 | [8] 0.089 | [11] 0.078 | [9] 0.295 | [16] 0.08 | [13] -0.132

PHACTR2 isoform 4 (UniProt O75167)
inactive: erlotinib 0.024 | [7] 0.066 | [3] -0.038 | [14] -0.054 | [5] 0.03 | [6] -0.345 | IRAK-1-4 Inhibitor I -0.043 | ibrutinib 0.098 | [10] -0.038 | ralimetinib -0.133 | [15] -0.112 | [8] -0.085 | [11] -0.104 | [9] -0.163 | [12] 0.069 | [16] 0.189 | [13] -0.041

PIGBOS1, A0A0B4J2F0
inactive: [12] -0.033

PHOX2B (UniProt Q99453)
inactive: [1] 0.04 | [2] -0.088 | [3] -0.188 | [4] 0.05 | [5] -0.044 | [6] -0.153 | ibrutinib 0.036 | [11] -0.155 | [9] 0.033 | [12] 0.138

PHF12 (UniProt Q96QT6)
inactive: [14] 0.289 | IRAK-1-4 Inhibitor I -0.008 | ralimetinib 0 | [15] -0.044 | [16] 0.025

PHGDH, A0A286YFE1
inactive: [3] -0.166 | ibrutinib 0.032 | [10] 0.084 | [9] -0.458 | [13] 0.107

PIM2 (UniProt Q9P1W9)
inactive: [14] -0.219 | IRAK-1-4 Inhibitor I -0.019 | ralimetinib 0.05 | [15] 0.075 | [11] -0.127 | [9] 0.184 | [16] 0.11

PLEC isoform 3 (UniProt Q15149)
inactive: [1] -0.124 | [2] -0.239 | [3] 0.019 | [4] -0.19 | [5] 0.015 | [6] 0.053 | ibrutinib 0.138 | [12] -0.011

PLEKHA8 (UniProt Q96JA3)
inactive: [14] 0.083 | [5] -0.342 | [6] 0.154 | IRAK-1-4 Inhibitor I -0.235 | ralimetinib 0.272 | [15] 0.177 | [11] 0.02 | [9] -0.082 | [16] -0.234

PHF2 (UniProt O75151)
inactive: [14] 0.339 | IRAK-1-4 Inhibitor I -0.068 | ralimetinib -0.205 | [15] -0.228 | [16] 0.135

PKLR (UniProt F8W6W2)
inactive: [1] 0 | [2] -0.142 | [4] 0.086

PIGQ (UniProt Q9BRB3)
inactive: [1] 0.071 | [2] 0.037 | [3] -0.108 | [4] -0.162 | [5] 0.023 | [6] 0.049 | ibrutinib -0.209 | [10] 0.016 | [12] -0.074 | [13] 0.137

PHOSPHO2 (UniProt C9JD35)
inactive: [5] 0.069 | [6] -0.21 | [12] 0.09

PIP5K1B isoform 2 (UniProt O14986)
inactive: [3] 0.14 | ibrutinib -0.116 | [12] -0.328

PIGW (UniProt Q7Z7B1)
inactive: [1] -0.181 | [2] -0.089 | [14] 0.067 | [4] -0.014 | IRAK-1-4 Inhibitor I 0.015 | ralimetinib -0.138 | [15] -0.171 | [11] 0.013 | [9] 0.047 | [12] -0.01 | [16] -0.058

PGM3 (UniProt D6RCQ8)
inactive: [3] 0 | ibrutinib 0.382 | [10] 0.036 | [13] 0.17

PKMYT1 (UniProt Q99640)
inactive: [1] -0.018 | [2] 0.056 | [14] 0.091 | [4] 0.048 | [5] -0.044 | [6] -0.024 | IRAK-1-4 Inhibitor I 0.002 | ralimetinib 0.003 | [15] -0.118 | [11] 0.022 | [9] -0.06 | [12] 0.2 | [16] 0.035

PHF13 (UniProt Q86YI8)
inactive: [3] 0.029 | [14] -0.064 | IRAK-1-4 Inhibitor I 0.058 | ibrutinib -0.146 | [10] -0.144 | ralimetinib -0.046 | [15] -0.268 | [12] 0.13 | [16] 0.04 | [13] -0.143

PKIB isoform 2 (UniProt Q9C010)
inactive: [14] -0.223 | IRAK-1-4 Inhibitor I -0.056 | [10] -0.056 | ralimetinib -0.114 | [15] 0.039 | [16] 0.136 | [13] -0.191

PIK3AP1 (UniProt Q6ZUJ8)
inactive: [3] -0.051 | [14] -0.02 | [5] -0.031 | [6] -0.114 | IRAK-1-4 Inhibitor I -0.042 | ibrutinib 0.035 | ralimetinib -0.03 | [15] -0.093 | [9] -0.151 | [12] 0.054 | [16] -0.098

PHETA1 isoform 4 (UniProt Q8N4B1)
inactive: [14] 0.132 | IRAK-1-4 Inhibitor I 0.291 | ralimetinib 0.021 | [15] -0.074 | [16] -0.054

2 neighbouring entries out of the list so far:
PKMYT1 (UniProt Q99640)
inactive: [1] -0.018 | [2] 0.056 | [14] 0.091 | [4] 0.048 | [5] -0.044 | [6] -0.024 | IRAK-1-4 Inhibitor I 0.002 | ralimetinib 0.003 | [15] -0.118 | [11] 0.022 | [9] -0.06 | [12] 0.2 | [16] 0.035

PHF13 (UniProt Q86YI8)
inactive: [3] 0.029 | [14] -0.064 | IRAK-1-4 Inhibitor I 0.058 | ibrutinib -0.146 | [10] -0.144 | ralimetinib -0.046 | [15] -0.268 | [12] 0.13 | [16] 0.04 | [13] -0.143

Additional results

PIK3R3 (UniProt Q92569)
inactive: [14] -0.059 | IRAK-1-4 Inhibitor I -0.07 | ralimetinib 0.122 | [15] 0.188 | [11] 0.048 | [16] 0.113
